# Substitutions are numbered along the chain they refer to. This is one part of the list. For some assays here: At the low end of the ranking, values are background and their order means little.
# Key:
# Details in all cases: yeast three-hybrid, YBZ-1, SC-Leu-His + 0.5 mM 3-AT, 4 days
# [1] = target: T1, PUM1 PUF domain R2-AWS N899A + Y900W + Q903S (UniProt Q14671)
# T1 sequence: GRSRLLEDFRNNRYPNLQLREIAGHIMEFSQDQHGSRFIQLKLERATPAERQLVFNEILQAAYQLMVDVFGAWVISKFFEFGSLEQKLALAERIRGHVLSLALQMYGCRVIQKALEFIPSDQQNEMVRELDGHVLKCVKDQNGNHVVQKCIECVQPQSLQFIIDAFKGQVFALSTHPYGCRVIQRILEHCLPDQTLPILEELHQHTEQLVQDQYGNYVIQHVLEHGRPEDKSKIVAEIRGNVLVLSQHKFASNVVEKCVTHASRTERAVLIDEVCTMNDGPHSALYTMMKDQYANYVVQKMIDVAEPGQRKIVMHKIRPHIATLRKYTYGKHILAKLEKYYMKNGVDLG
# [2] = target: T2, PUM1 PUF domain R2-AWW N899A + Y900W + Q903W (UniProt Q14671)
# T2 sequence: T1 sequence with S76W
# [3] = target: T3, PUM1 PUF domain R2-AYW N899A + Q903W (UniProt Q14671)
# T3 sequence: T1 sequence with W73Y, S76W
# [4] = target: T4, PUM1 PUF domain R2-CFP N899C + Y900F + Q903P (UniProt Q14671)
# T4 sequence: T1 sequence with A72C, W73F, S76P
# [5] = target: T5, PUM1 PUF domain R2-CWP N899C + Y900W + Q903P (UniProt Q14671)
# T5 sequence: T1 sequence with A72C, S76P
# [6] = target: T6, PUM1 PUF domain R2-DRQ N899D + Y900R (UniProt Q14671)
# T6 sequence: T1 sequence with A72D, W73R, S76Q
# [7] = target: T7, PUM1 PUF domain R2-DWC N899D + Y900W + Q903C (UniProt Q14671)
# T7 sequence: T1 sequence with A72D, S76C
# [8] = target: T8, PUM1 PUF domain R2-DWI N899D + Y900W + Q903I (UniProt Q14671)
# T8 sequence: T1 sequence with A72D, S76I
# [9] = target: T9, PUM1 PUF domain R2-DWL N899D + Y900W + Q903L (UniProt Q14671)
# T9 sequence: T1 sequence with A72D, S76L
# [10] = target: T10, PUM1 PUF domain R2-EHL N899E + Y900H + Q903L (UniProt Q14671)
# T10 sequence: T1 sequence with A72E, W73H, S76L
# [11] = target: T11, PUM1 PUF domain R2-EWA N899E + Y900W + Q903A (UniProt Q14671)
# T11 sequence: T1 sequence with A72E, S76A
# [12] = target: T12, PUM1 PUF domain R2-EWG N899E + Y900W + Q903G (UniProt Q14671)
# T12 sequence: T1 sequence with A72E, S76G
# [13] = target: T13, PUM1 PUF domain R2-EWL N899E + Y900W + Q903L (UniProt Q14671)
# T13 sequence: T1 sequence with A72E, S76L
# [14] = target: T14, PUM1 PUF domain R2-EWS N899E + Y900W + Q903S (UniProt Q14671)
# T14 sequence: T1 sequence with A72E
# [15] = target: T15, PUM1 PUF domain R2-GWF N899G + Y900W + Q903F (UniProt Q14671)
# T15 sequence: T1 sequence with A72G, S76F
# [16] = target: T16, PUM1 PUF domain R2-GWG N899G + Y900W + Q903G (Homo sapiens) (UniProt Q14671)
# T16 sequence: T1 sequence with A72G, S76G
# [17] = target: T17, PUM1 PUF domain R2-GWW N899G + Y900W + Q903W (Homo sapiens) (UniProt Q14671)
# T17 sequence: T1 sequence with A72G, S76W
# [18] = target: T18, PUM1 PUF domain R2-IVF N899I + Y900V + Q903F (Homo sapiens) (UniProt Q14671)
# T18 sequence: T1 sequence with A72I, W73V, S76F
# [19] = target: T19, PUM1 PUF domain R2-KCA N899K + Y900C + Q903A (UniProt Q14671)
# T19 sequence: T1 sequence with A72K, W73C, S76A
# [20] = target: T20, PUM1 PUF domain R2-KIG N899K + Y900I + Q903G (UniProt Q14671)
# T20 sequence: T1 sequence with A72K, W73I, S76G
sequence,measurement,setting,value
GGCUAGAACUAGUGGAUCCCCCGGCGCCCGGCGGCUCGAGCCCGGGUAAGUGUAAAUAGUCUGCAUGCCGCCGGGCGCCAUGCCUGCAGGUCGACUCUAGAAAACAUG,binding signal (log2 enrichment (interaction score)),[1],< -6.01
same,binding signal (log2 enrichment (interaction score)),[2],< -7.84
same,binding signal (log2 enrichment (interaction score)),[3],< -7.16
same,binding signal (log2 enrichment (interaction score)),[4],-7.64
same,binding signal (log2 enrichment (interaction score)),[5],< -7.18
same,binding signal (log2 enrichment (interaction score)),[6],-6.31
same,binding signal (log2 enrichment (interaction score)),[7],< -6.89
same,binding signal (log2 enrichment (interaction score)),[8],< -6.8
same,binding signal (log2 enrichment (interaction score)),[9],< -8.24
same,binding signal (log2 enrichment (interaction score)),[10],< -5.45
same,binding signal (log2 enrichment (interaction score)),[11],< -6.95
same,binding signal (log2 enrichment (interaction score)),[12],-7.1
same,binding signal (log2 enrichment (interaction score)),[13],< -6.87
same,binding signal (log2 enrichment (interaction score)),[14],< -8.07
same,binding signal (log2 enrichment (interaction score)),[15],< -7.92
same,binding signal (log2 enrichment (interaction score)),[16],0.16
same,binding signal (log2 enrichment (interaction score)),[17],-1.13
same,binding signal (log2 enrichment (interaction score)),[18],< -5.77
same,binding signal (log2 enrichment (interaction score)),[19],< -6.62
same,binding signal (log2 enrichment (interaction score)),[20],-5.19

# Reprinted at random: 2 entries already listed, in no set order.
sequence,measurement,setting,value
GGCUAGAACUAGUGGAUCCCCCGGCGCCCGGCGGCUCGAGCCCGGGUAAGUGUAAAUAGUCUGCAUGCCGCCGGGCGCCAUGCCUGCAGGUCGACUCUAGAAAACAUG,binding signal (log2 enrichment (interaction score)),[13],< -6.87
same,binding signal (log2 enrichment (interaction score)),[11],< -6.95

# — publication PMC8384837
